Experimental data from paper doi:10.1101/495762 (bioRxiv, 2018).
These are yes or no findings as the source states them, for the method shown. In cells and extracts the contact can be indirect. Some entries that bind do so weakly or less than the wild type. Where a sequence is shown, tags or fusion partners need not be part of it.

T1: Smc3(K198C)-HaloTag (S. cerevisiae) (UniProt P47037)
T1 sequence: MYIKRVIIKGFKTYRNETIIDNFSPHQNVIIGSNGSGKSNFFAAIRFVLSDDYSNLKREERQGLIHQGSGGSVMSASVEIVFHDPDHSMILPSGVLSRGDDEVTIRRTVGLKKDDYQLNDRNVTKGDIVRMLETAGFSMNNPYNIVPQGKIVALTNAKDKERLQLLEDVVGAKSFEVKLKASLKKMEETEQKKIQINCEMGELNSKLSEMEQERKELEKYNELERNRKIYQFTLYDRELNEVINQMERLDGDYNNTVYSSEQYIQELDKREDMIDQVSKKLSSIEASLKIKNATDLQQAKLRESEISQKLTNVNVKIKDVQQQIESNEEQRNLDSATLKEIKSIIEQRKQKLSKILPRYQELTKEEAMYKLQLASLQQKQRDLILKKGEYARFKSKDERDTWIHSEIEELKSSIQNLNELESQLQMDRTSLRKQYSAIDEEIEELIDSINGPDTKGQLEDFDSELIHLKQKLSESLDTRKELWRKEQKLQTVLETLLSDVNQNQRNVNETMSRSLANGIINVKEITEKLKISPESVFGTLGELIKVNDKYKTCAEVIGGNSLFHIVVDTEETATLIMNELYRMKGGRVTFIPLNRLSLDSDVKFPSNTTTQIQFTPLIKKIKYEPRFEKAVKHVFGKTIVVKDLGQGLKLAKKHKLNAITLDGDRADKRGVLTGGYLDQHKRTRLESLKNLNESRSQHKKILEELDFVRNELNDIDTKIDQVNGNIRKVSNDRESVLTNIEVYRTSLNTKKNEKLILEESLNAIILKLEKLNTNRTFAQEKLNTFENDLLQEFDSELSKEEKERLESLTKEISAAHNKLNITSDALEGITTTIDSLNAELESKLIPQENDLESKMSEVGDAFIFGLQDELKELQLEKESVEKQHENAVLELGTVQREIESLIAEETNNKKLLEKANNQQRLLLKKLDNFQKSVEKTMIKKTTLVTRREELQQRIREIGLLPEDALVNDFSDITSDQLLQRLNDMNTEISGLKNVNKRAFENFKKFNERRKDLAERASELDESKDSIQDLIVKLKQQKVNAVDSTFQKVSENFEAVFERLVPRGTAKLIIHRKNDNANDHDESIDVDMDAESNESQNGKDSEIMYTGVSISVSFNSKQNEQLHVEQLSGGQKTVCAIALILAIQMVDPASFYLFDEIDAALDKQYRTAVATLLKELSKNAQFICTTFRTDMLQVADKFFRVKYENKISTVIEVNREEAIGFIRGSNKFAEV

T2: Smc3(K38I, E570C)-HaloTag (S. cerevisiae) (UniProt P47037)
T2 sequence: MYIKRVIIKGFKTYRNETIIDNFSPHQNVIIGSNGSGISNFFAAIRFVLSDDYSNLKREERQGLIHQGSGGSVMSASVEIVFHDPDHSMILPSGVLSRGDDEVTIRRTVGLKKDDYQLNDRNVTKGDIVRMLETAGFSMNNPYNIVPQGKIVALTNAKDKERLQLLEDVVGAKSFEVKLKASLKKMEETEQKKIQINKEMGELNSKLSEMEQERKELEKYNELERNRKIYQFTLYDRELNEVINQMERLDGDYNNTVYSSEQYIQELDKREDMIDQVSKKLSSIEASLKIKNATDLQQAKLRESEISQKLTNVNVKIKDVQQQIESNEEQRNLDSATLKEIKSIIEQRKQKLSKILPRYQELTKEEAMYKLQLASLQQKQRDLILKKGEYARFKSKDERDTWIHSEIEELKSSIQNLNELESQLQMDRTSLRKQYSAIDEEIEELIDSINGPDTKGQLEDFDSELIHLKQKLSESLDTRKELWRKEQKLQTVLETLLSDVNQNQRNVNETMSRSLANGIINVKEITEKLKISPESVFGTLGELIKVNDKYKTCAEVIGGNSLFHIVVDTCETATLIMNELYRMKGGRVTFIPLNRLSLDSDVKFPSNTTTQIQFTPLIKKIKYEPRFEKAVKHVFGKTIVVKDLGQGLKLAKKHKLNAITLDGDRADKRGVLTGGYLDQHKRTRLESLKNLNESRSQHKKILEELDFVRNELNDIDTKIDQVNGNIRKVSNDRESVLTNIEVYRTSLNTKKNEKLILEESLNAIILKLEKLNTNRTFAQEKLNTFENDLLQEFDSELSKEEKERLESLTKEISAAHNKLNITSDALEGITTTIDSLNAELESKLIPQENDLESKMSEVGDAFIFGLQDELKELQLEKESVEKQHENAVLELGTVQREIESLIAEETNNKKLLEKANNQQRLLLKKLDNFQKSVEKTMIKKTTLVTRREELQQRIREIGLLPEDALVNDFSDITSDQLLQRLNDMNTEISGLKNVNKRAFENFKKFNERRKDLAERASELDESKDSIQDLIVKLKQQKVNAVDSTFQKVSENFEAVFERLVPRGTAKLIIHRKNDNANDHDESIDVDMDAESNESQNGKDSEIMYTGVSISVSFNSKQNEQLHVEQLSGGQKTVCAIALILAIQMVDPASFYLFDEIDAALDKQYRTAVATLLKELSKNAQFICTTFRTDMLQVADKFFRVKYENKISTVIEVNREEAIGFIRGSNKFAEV

B1: Smc1(K201C) (protein, UniProt P32908 1-1225)
chain: MGRLVGLELSNFKSYRGVTKVGFGESNFTSIIGPNGSGKSNMMDAISFVLGVRSNHLRSNILKDLIYRGVLNDENSDDYDNEGAASSNPQSAYVKAFYQKGNKLVELMRIISRNGDTSYKIDGKTVSYKDYSIFLENENILIKAKNFLVFQGDVEQIAAQSPVELSRMFEEVSGSIQYKKEYEELKEKIEKLSKSATESICNRRRIHGELKTYKEGINKNEEYRKQLDKKNELQKFQALWQLYHLEQQKEELTDKLSALNSEISSLKGKINNEMKSLQRSKSSFVKESAVISKQKSKLDYIFKDKEKLVSDLRLIKVPQQAAGKRISHIEKRIESLQKDLQRQKTYVERFETQLKVVTRSKEAFEEEIKQSARNYDKFKLNENDLKTYNCLHEKYLTEGGSILEEKIAVLNNDKREIQEELERFNKRADISKRRITEELSITGEKLDTQLNDLRVSLNEKNALHTERLHELKKLQSDIESANNQEYDLNFKLRETLVKIDDLSANQRETMKERKLRENIAMLKRFFPGVKGLVHDLCHPKKEKYGLAVSTILGKNFDSVIVENLTVAQECIAFLKKQRAGTASFIPLDTIETELPTLSLPDSQDYILSINAIDYEPEYEKAMQYVCGDSIICNTLNIAKDLKWKKGIRGKLVTIEGALIHKAGLMTGGISGDANNRWDKEEYQSLMSLKDKLLIQIDELSNGQRSNSIRAREVENSVSLLNSDIANLRTQVTQQKRSLDENRLEIKYHNDLIEKEIQPKITELKKKLDDLENTKDNLVKEKEALQNNIFKEFTSKIGFTIKEYENHSGELMRQQSKELQQLQKQILTVENKLQFETDRLSTTQRRYEKAQKDLENAQVEMKSLEEQEYAIEMKIGSIESKLEEHKNHLDELQKKFVTKQSELNSSEDILEDMNSNLQVLKRERDGIKEDIEKFDLERVTALKNCKISNINIPISSETTIDDLPISSTDNEAITISNSIDINYKGLPKKYKENNTDSARKELEQKIHEVEEILNELQPNARALERYDEAEGRFEVINNETEQLKAEEKKILNQFLKIKKKRKELFEKTFDYVSDHLDAIYRELTKNPNSNVELAGGNASLTIEDEDEPFNAGIKYHATPPLKRFKDMEYLSGGEKTVAALALLFAINSYQPSPFFVLDEVDAALDITNVQRIAAYIRRHRNPDLQFIVISLKNTMFEKSDALVGVYRQQQENSSKIITLDLSNYAE
B2: Smc1(K639C) (protein, UniProt P32908 1-1225)
chain: MGRLVGLELSNFKSYRGVTKVGFGESNFTSIIGPNGSGKSNMMDAISFVLGVRSNHLRSNILKDLIYRGVLNDENSDDYDNEGAASSNPQSAYVKAFYQKGNKLVELMRIISRNGDTSYKIDGKTVSYKDYSIFLENENILIKAKNFLVFQGDVEQIAAQSPVELSRMFEEVSGSIQYKKEYEELKEKIEKLSKSATESIKNRRRIHGELKTYKEGINKNEEYRKQLDKKNELQKFQALWQLYHLEQQKEELTDKLSALNSEISSLKGKINNEMKSLQRSKSSFVKESAVISKQKSKLDYIFKDKEKLVSDLRLIKVPQQAAGKRISHIEKRIESLQKDLQRQKTYVERFETQLKVVTRSKEAFEEEIKQSARNYDKFKLNENDLKTYNCLHEKYLTEGGSILEEKIAVLNNDKREIQEELERFNKRADISKRRITEELSITGEKLDTQLNDLRVSLNEKNALHTERLHELKKLQSDIESANNQEYDLNFKLRETLVKIDDLSANQRETMKERKLRENIAMLKRFFPGVKGLVHDLCHPKKEKYGLAVSTILGKNFDSVIVENLTVAQECIAFLKKQRAGTASFIPLDTIETELPTLSLPDSQDYILSINAIDYEPEYEKAMQYVCGDSIICNTLNIACDLKWKKGIRGKLVTIEGALIHKAGLMTGGISGDANNRWDKEEYQSLMSLKDKLLIQIDELSNGQRSNSIRAREVENSVSLLNSDIANLRTQVTQQKRSLDENRLEIKYHNDLIEKEIQPKITELKKKLDDLENTKDNLVKEKEALQNNIFKEFTSKIGFTIKEYENHSGELMRQQSKELQQLQKQILTVENKLQFETDRLSTTQRRYEKAQKDLENAQVEMKSLEEQEYAIEMKIGSIESKLEEHKNHLDELQKKFVTKQSELNSSEDILEDMNSNLQVLKRERDGIKEDIEKFDLERVTALKNCKISNINIPISSETTIDDLPISSTDNEAITISNSIDINYKGLPKKYKENNTDSARKELEQKIHEVEEILNELQPNARALERYDEAEGRFEVINNETEQLKAEEKKILNQFLKIKKKRKELFEKTFDYVSDHLDAIYRELTKNPNSNVELAGGNASLTIEDEDEPFNAGIKYHATPPLKRFKDMEYLSGGEKTVAALALLFAINSYQPSPFFVLDEVDAALDITNVQRIAAYIRRHRNPDLQFIVISLKNTMFEKSDALVGVYRQQQENSSKIITLDLSNYAE

Tests used:
[1] = target: T1, Smc3(K198C)-HaloTag (S. cerevisiae); experiment: cross-linking
[2] = target: T2, Smc3(K38I, E570C)-HaloTag (S. cerevisiae); experiment: cross-linking

| Binder | binding [1] | binding [2] |
| --- | --- | --- |
| B1 | binds | – |
| B2 | – | binds |
